Among the data in PMC7862700 are binding signal values, retold here.

Protein sequences, listed by entry. Tags and fused reporters are not part of them. Lines headed by an entry give the natural chain unless they say otherwise; changes in a name come on top.
UniProt Q9Y603: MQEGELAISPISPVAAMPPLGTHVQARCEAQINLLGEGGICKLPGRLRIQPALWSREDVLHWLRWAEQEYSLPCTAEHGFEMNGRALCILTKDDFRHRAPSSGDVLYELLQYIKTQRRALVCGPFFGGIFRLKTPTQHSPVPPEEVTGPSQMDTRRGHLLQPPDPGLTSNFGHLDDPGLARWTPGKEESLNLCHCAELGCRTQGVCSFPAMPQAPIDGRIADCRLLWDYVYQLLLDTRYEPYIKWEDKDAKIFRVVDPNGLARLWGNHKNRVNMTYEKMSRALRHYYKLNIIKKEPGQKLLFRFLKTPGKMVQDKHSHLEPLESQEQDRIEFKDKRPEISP

Only a part is listed here, and it is no random draw. At the low end of the ranking the order means little.

In the experiment the target is ETV7 (UniProt Q9Y603). As to the kind of experiment: DAPPL (digital affinity profiling via proximity ligation, sequencing). To be noted: 10 mM Tris-HCl pH 7.5, 50 mM NaCl, 1 mM DTT, 4% glycerol, room temperature, 30 min; GST-TFs on glutathione beads, 16-mer random dsDNA library, 0.1% …; high values mean tight binding; double strand, one strand shown; scale: fold enrichment (6-mer frequency, TF over GST control).
For the sequence ACGATA, the binding signal is 1.22. The figure for TAGGAT is 0.988; for CTTATT it is 1.43. The same measure for TTATAA: 1.21. The same measure for GCTCAC: 1.4; for CTGGTA: 1.4. As for AAAGCC, the binding signal turned out to be 0.93. The figure for TTCACA is 1.29; for GGAACT it is 1.56.

Turning to GTGCCT, the binding signal turned out to be 0.897. In turn, ACCCAA gave a binding signal of 1.14. In turn, AATTAA displayed a binding signal of 1.2.

In the case of CCTTCT, the binding signal amounted to 1.45.

In the case of GAATTG, the binding signal is 1.22. In the case of CTAGGC, the binding signal was 1.2. The same measure for ACCTCC: 1.4; for GGCTCG: 0.949; for ACCGTT: 1.08. The sequence TCTGTA displayed a binding signal of 1.03.

Consider CGAATG, for which the binding signal amounted to 1.08. GCGGCT displayed a binding signal of 0.933.

As for TTAGAT, the binding signal amounted to 1.03. For the sequence CGCCCA, the binding signal was determined as 0.843. The figure for TTGGGG is 1.12; for ATGCCG it is 0.973. The figure for GCAATG is 1.14; for TCAAAC it is 1.11; for GATTTA it is 0.948. The same measure for CGCTCG: 0.939; for GCCCGA: 0.971; for CAGCCC: 0.952. As for GGTCTG, the binding signal was 0.943. The figure for TCTGGT is 1.35; for CCATCC it is 1.24.

Take CACCAA: the binding signal was 0.975.

Turning to CGCAAC, the binding signal turned out to be 0.89. In the case of TATAAT, the binding signal stood at 1.17. Sequence TCACTG displayed a binding signal of 1.3. The figure for CACTCC is 1.24.
